Measured values: publication PMC3953482, “Fha Interaction with Phosphothreonine of TssL Activates Type VI Secretion in Agrobacterium tumefaciens” (PLoS Pathogens, 2014)

B1: 6 mer phosphorylated CHK2 peptide (VSpTQEL) (peptide)
peptide: VSTQEL
modifications: phosphothreonine (pT; 3rd residue of the peptide)
B2: 8 mer phosphorylated TssL peptide (DLPpTVVEI) (peptide)
peptide: DLPTVVEI
modifications: phosphothreonine (pT, Thr 14 of TssL; 4th residue of the peptide)

Assays:
[1] = molecular target: Fha7-267^WT (truncated His-tagged Fha with the intact FHA domain) (Agrobacterium tumefaciens C58); assay: condition: 200 µM protein in the sample cell and 6 mM peptide in the injection syringe; ITC; MicroCal iTC200; 200 µM Fha protein in the sample cell, 6 mM peptide in the injection syringe, 25 injections, 25°C, 50 mM Tris-HCl (pH 8.0), 150 mM NaCl; One Set of Sites model with the N value fixed at 1; both purified
[2] = molecular target: Fha7-267^R30AS46A (truncated Fha with a mutated FHA domain) (Agrobacterium tumefaciens C58); assay: as above

Row | Binder | binding [1] | binding [2]
1 | B1 | no binding | –
2 | B2 | – | no binding

Results are given in words; binding and its absence hold for the method and conditions named.
